Measurements taken from article PMC9273956.

Tested on: BcHSFA4A
Assay: EMSA
Details: Chemiluminescent EMSA kit (Beyotime GS009), 4 ug protein, 50 nM biotin probe, 6% native gel, pH and temperature not stated, recombinant protein, protein details: GST (pGEX-4T-1, N-terminal), label: biotin (cold version unlabeled)
[1] = with BcWRKY33A-GST, binding signal unchanged vs GST

“AGACGCTTCTGGAACTTCAAACTGAAAAATTATCAGACCGAACTGTTCACTCT (double strand) [HSP probe (BcHSP17.6A promoter, HSE1 and HSE2)]”: binds; binds [1].

“CTTCTAAGAATCTTCTAAGAATCTTCTAAGAAT (double strand) [HSE3 probe (BcZAT12 promoter HSE motif 3, three copies)]”: binds; binds [1].

Construct, isoform or probe ends are uncertain for at least one entry.
